In patent US20180320217A1, “METHODS FOR SAMPLING AND MEASURING ORAL LAVAGE PROTEINS” (The Procter & Gamble Company, priority 2017, published 2018):

Key:
[1] = test system: peptides in gingival brush samples; experiment: Protein and peptide profiling of gingival brush samples (LC-MS/MS), TABLE 23; assay type: in vivo, human; conditions: for Mean Cntl Bsl / Mean Cntl Wk3 / Mean TrtBsl / Mean TrtWk3: peptide abundance, gingival brush samples; for Mean Cntl Bsl / Mean Cntl Wk3 / Mean CntlBsl (peptide abundance) / Mean CntlWk3 (peptide abundance): control regimen; for Mean Cntl Bsl / Mean TrtBsl / Mean CntlBsl (peptide abundance) / Mean TrtBsl (peptide abundance): baseline; for Mean Cntl Wk3 / Mean TrtWk3 / Mean CntlWk3 (peptide abundance) / Mean TrtWk3 (peptide abundance): week 3; for Mean TrtBsl / Mean TrtWk3 / Mean TrtBsl (peptide abundance) / Mean TrtWk3 (peptide abundance): treatment regimen; for Mean CntlBsl (peptide abundance) / Mean CntlWk3 (peptide abundance) / Mean TrtBsl (peptide abundance) / Mean TrtWk3 (peptide abundance): pooled gingival brush samples, LC-MS/MS
proteins in oral lavage = experiment: Abundance of proteins in human oral lavage (SomaLogic), TABLE 1; assay type: in vivo; conditions: for Means (Original Scale) High bleeder BL / Means (Original Scale) High bleeder W4 / Means (Original Scale) Low bleeder BL: abundance in oral lavage; for Means (Original Scale) High bleeder BL: high bleeders (gingivitis); for Means (Original Scale) High bleeder BL / Means (Original Scale) Low bleeder BL: baseline; for Means (Original Scale) High bleeder W4 / Fold Change High bleeder W4 vs High bleeder BL: high bleeders; for Means (Original Scale) High bleeder W4: week 4 of investigative products; for Means (Original Scale) Low bleeder BL: low bleeders (healthy); for Fold Change High bleeder W4 vs High bleeder BL / Fold Change High bleeder BL vs Low bleeder BL: oral lavage; for Fold Change High bleeder W4 vs High bleeder BL: week 4 of treatment vs baseline; for Fold Change High bleeder BL vs Low bleeder BL: high vs low bleeders at baseline

Row | Substance | Mean Cntl Bsl [1] | Mean Cntl Wk3 [1] | Mean TrtBsl [1] | Mean TrtWk3 [1] | further results
1 | 6PGD_HUMAN | 12758.4 | 18840.3 | 10096.9 | 20075.9 | 
2 | 1433B_HUMAN | 6129.8 | 9357.7 | 6474.2 | 10149.8 | 
3 | 1433E_HUMAN | 3802.4 | 6194.2 | 2804.5 | 5713.5 | 
4 | 1433S_HUMAN | 2008.9 | 4952.8 | 3283.7 | 6593.3 | 
5 | 1433Z_HUMAN | 190255.8 | 292907.6 | 186750.4 | 326090.7 | 
6 | ANXA2_HUMAN | 25612.4 | 43936.0 | 39545.4 | 50535.7 | 
7 | ATPB_HUMAN | 3158.5 | 3701.7 | 1275.7 | 3129.0 | 
8 | CAH1_HUMAN | 3.4 | 192.1 | 8.7 | 910.7 | 
9 | CALL3_HUMAN | 5891.9 | 12940.4 | 9733.9 | 15869.0 | 
10 | CATG_HUMAN | 20293.9 | 17693.8 | 21478.2 | 12710.1 | 
11 | CH10_HUMAN | 336.8 | 1115.3 | 623.0 | 1546.4 | 
12 | CO3_HUMAN | 7378.4 | 7432.8 | 6462.6 | 7987.3 | 
13 | CRNN_HUMAN | 309640.1 | 501133.9 | 295264.9 | 482761.2 | 
14 | CYC_HUMAN | 4147.6 | 6023.8 | 3784.4 | 7949.3 | 
15 | DESP_HUMAN | 7712.9 | 7628.8 | 5624.2 | 10059.4 | 
16 | DNJB1_HUMAN | 1670.3 | 1765.4 | 588.0 | 1472.7 | 
17 | DSC2_HUMAN | 11058.5 | 17241.0 | 9081.8 | 15742.8 | 
18 | ECM29_HUMAN | 68098.3 | 31331.7 | 83586.4 | 29450.7 | 
19 | ENOA_HUMAN | 30252.6 | 45538.4 | 33697.9 | 71243.0 | 
20 | EZR1_HUMAN | 13381.9 | 23893.0 |  | 29354.9 | 
21 | FILA_HUMAN | 1241.5 | 1838.4 | 2441.8 | 903.3 | 
22 | GLNA_HUMAN | 13608.7 | 20891.9 | 13589.1 | 26133.8 | 
23 | GOGB1_HUMAN | 10960.0 | 14976.9 | 13618.7 | 16567.4 | 

Row | Substance | Mean Cntl Bsl [1] | Mean Cntl Wk3 [1] | Mean TrtBsl [1] | Mean TrtWk3 [1] | further results
24 | GP146_HUMAN | 9521.0 | 12181.9 | 7634.4 | 14633.5 | 
25 | GRP75_HUMAN |  |  |  |  | Mean CntlBsl (peptide abundance) [1]: 4681.5; Mean CntlWk3 (peptide abundance) [1]: 6879.2; Mean TrtBsl (peptide abundance) [1]: 5750.4; Mean TrtWk3 (peptide abundance) [1]: 8750.7
26 | GRP78_HUMAN | 7182.7 | 12846.8 | 9192.3 | 15225.7 | 
27 | HBA_HUMAN | 36452.9 | 95049.1 | 44975.0 | 340255.2 | 
28 | HBB_HUMAN | 80565.4 | 252012.9 | 79546.8 | 1001395.5 | 
29 | HSP71_HUMAN | 21846.5 | 33255.0 | 30544.9 | 38078.3 | 
30 | HSPB1_HUMAN | 86986.6 | 56903.3 | 82641.1 | 47943.4 | 
31 | IDHC_HUMAN | 17771.7 | 13240.3 | 15482.9 | 17631.4 | 
32 | KPYM_HUMAN |  |  |  |  | Mean CntlBsl (peptide abundance) [1]: 12918.4; Mean CntlWk3 (peptide abundance) [1]: 19760.9; Mean TrtBsl (peptide abundance) [1]: 16658.2; Mean TrtWk3 (peptide abundance) [1]: 23529.4
33 | LAMC1_HUMAN | 16571.0 | 6151.9 | 15872.0 | 7213.4 | 
34 | LYSC_HUMAN | 685.6 | 419.4 | 286.6 | 783.6 | 
35 | MYCB2_HUMAN | 9187.8 | 22635.4 | 8051.1 | 63943.8 | 
36 | MYH9_HUMAN | 771.1 | 1533.5 | 875.8 | 1574.2 | 
37 | ODO2_HUMAN | 30536.6 | 37348.6 | 20853.2 | 45660.4 | 
38 | PABP1_HUMAN | 42504.8 | 63429.8 | 56370.3 | 84565.0 | 
39 | PDIA1_HUMAN | 14218.1 | 23271.7 | 17143.1 | 27359.8 | 
40 | PEPL_HUMAN | 6810.3 | 6172.7 | 8446.6 | 5882.9 | 
41 | PLEC_HUMAN | 17501.7 | 40865.7 | 23162.7 | 46143.6 | 
42 | Ubiquitin carboxyl-terminal hydrolase isozyme L1 |  |  |  |  | Means (Original Scale) High bleeder BL (proteins in oral lavage): 8790; Means (Original Scale) High bleeder W4 (proteins in oral lavage): 4911; Means (Original Scale) Low bleeder BL (proteins in oral lavage): 2687; Fold Change High bleeder W4 vs High bleeder BL (proteins in oral lavage): 0.62; Fold Change High bleeder BL vs Low bleeder BL (proteins in oral lavage): 3.47
43 | Ubiquitin-fold modifier-conjugating enzyme 1 |  |  |  |  | Means (Original Scale) High bleeder BL (proteins in oral lavage): 7435; Means (Original Scale) High bleeder W4 (proteins in oral lavage): 3140; Means (Original Scale) Low bleeder BL (proteins in oral lavage): 2760; Fold Change High bleeder W4 vs High bleeder BL (proteins in oral lavage): 0.48; Fold Change High bleeder BL vs Low bleeder BL (proteins in oral lavage): 2.23
44 | Vitamin K-dependent protein S |  |  |  |  | Means (Original Scale) High bleeder BL (proteins in oral lavage): 26044; Means (Original Scale) High bleeder W4 (proteins in oral lavage): 11517; Means (Original Scale) Low bleeder BL (proteins in oral lavage): 3768; Fold Change High bleeder W4 vs High bleeder BL (proteins in oral lavage): 0.49; Fold Change High bleeder BL vs Low bleeder BL (proteins in oral lavage): 5.90
45 | Vitronectin |  |  |  |  | Means (Original Scale) High bleeder BL (proteins in oral lavage): 1831; Means (Original Scale) High bleeder W4 (proteins in oral lavage): 1169; Means (Original Scale) Low bleeder BL (proteins in oral lavage): 648; Fold Change High bleeder W4 vs High bleeder BL (proteins in oral lavage): 0.70; Fold Change High bleeder BL vs Low bleeder BL (proteins in oral lavage): 2.55
